This is an account of results in the supplement of paper PMC5949888.

Most values lie at the floor of the assay. Slopes are relative: functional sequences can read slightly below zero.

This series has as its system Saccharomyces cerevisiae PS128 hsf1 delta, HSF1(1-493) fusion. In words: growth estimate (transactivation domain function in HSF1 fusion, heat-shock survival) (a.u. (slope of normalised read count over time)); higher = stronger growth at 37°C, i.e. more transactivation activity. The note with it: library: random library.
For the substance WRTRGPIVMPVPKGFLLHGP, the growth estimate is under -0.25.
With VCKAPNKCYG the figure was under -0.25; with RTTFGHGRKSLLVLGLVWRE, under -0.25; with HHRYIGERMSTISRCGLG, under -0.25.
For the substance PGTWSSSYGTLYGTM, the growth estimate was under -0.25.
The result for PVVATSRTGRLVTWPNKPVL reads under -0.25; that for NSGPGGWTALT, under -0.25.
With YVWLGRFEGIRE, the growth estimate is under -0.253.
As for LSTGLQPRGEETFGIRLATG, the growth estimate was under -0.25.
With GQDFAGHTERVPVFCPYEQS, the growth estimate was under -0.25.
Regarding VIGQQTRP, the growth estimate is under -0.25.
In the case of ELDRI, the growth estimate is under -0.25.
With LLL the figure was under -0.25; with RGSTRKPMGIQIINAGVVCV, under -0.25.
QAEQPRAKLVANRA: the growth estimate is under -0.25.
The result for VAGGQSGYEYITPACRIVQI reads under -0.25; that for IGRSSES, under -0.25; that for CTKKSWGL, under -0.25.
Turning to LGWHRGANSSCGWGIGPLY, the growth estimate is under -0.25.
With GAWPNRGNAKPVPHSDRS the figure was under -0.25; with LPELRRSVGPRWANSFSV, -0.245.
With KQAGLCYMRPVSHADAEVGD, the growth estimate is under -0.25.
The result for FIETRSDVWRHTSMKLLT reads under -0.25; that for EEPSLRTLFLGTCCMLRSEV, -0.231.
With GLGEQ the figure was under -0.25; with GTSE, -0.245; with GSSCRISKSRVSSL, under -0.25.
The result for RQVTYFY reads under -0.25.
Regarding REGLGRRRRRASRSHVF, the growth estimate was under -0.25.
As to ICLNLEFRET, the growth estimate is under -0.25.
With RSRLSGNIGFRVLNRLRCIV the figure was under -0.25; with AYHVHTCLAFGWHVCFTASK, under -0.25; with SNVDCSHDDEPRSKGFALKR, under -0.25.
The result for AFGVIGADGEIYALG reads under -0.25; that for RKEQLRSSACVYA, under -0.25.
With LNGYVQLRWVRGLGPNPWML the figure was -0.245; with PSAD, under -0.25.
Turning to ARGSRSTPLPRACLWILCVG, the growth estimate was under -0.25.
The result for AVGIGLGDRSVIRMTTETGS reads under -0.25; that for RLGRIVMRRGTIIPARQSLS, under -0.25; that for VSHLRLITYDS, under -0.25.
For VRISLPLSRRCEQWSVNQKS, the growth estimate was under -0.25.
With LLMHGQLRIGSRLYNQEEGG the figure was under -0.25.
With CGQKTQVHIRMTRNSRLHNW the figure was under -0.25; with VNIFSRNIVKV, under -0.25; with YIELLTEVRFFWLSHGGSPS, under -0.25.
In the case of YRHTYQTVCRATVGSGHATG, the growth estimate is under -0.25.
The result for KPVAS reads under -0.25; that for GWVETSHGSSVPMITPH, under -0.25; that for EPVYRRAGERHGMDGGCTN, under -0.25.
The result for HEGNLFRKVATRTSGST reads under -0.25.
With FEVVNG the figure was under -0.25; with FHLPGKGTEDTFVPAVVGSG, under -0.25; with LHSQSNTIFREIGSLSH, under -0.25.
With VHI, the growth estimate is under -0.25.
HCTSFITRDNGHSRKLHIHW: the growth estimate was under -0.25.
Consider VRCIGDDQEYVLL, for which the growth estimate was under -0.25.
Take LAIQ: the growth estimate was under -0.25.
The result for PAVMRGTESGRPLDITEDGH reads under -0.25; that for GLYAC, under -0.25.
With HWAPSMNVFVLVLRAVERRL the figure was under -0.25; with SNNILLGYGTLG, under -0.25; with NKGETEGD, under -0.25.
Regarding AGVPPYEEGGKK, the growth estimate was under -0.25.
With EGYRLSPILDGLRLRPGGGA the figure was under -0.25; with RLAPAE, under -0.25.
The result for EDQANSS reads under -0.25; that for AHLKSYRRVLDR, -0.248.
The result for FKRLVLRRSRVGGRQ reads under -0.25; that for HLERVSTSLQSL, under -0.25; that for APEAADSN, under -0.25.
Regarding WGKSLPNDLIIHIRRASPII, the growth estimate is under -0.25.
As to GVHGTPHRPMIWFWFGYTQR, the growth estimate was under -0.25.
With WAHCDTLRLVYIIIQARGIV the figure was under -0.25.
The result for TRWFFKRSARTLHTSPTGHG reads under -0.25; that for SQCVSLATRGYECHNFQRRT, under -0.25; that for PWFGLLYCQLG, under -0.25.
With RQIPWDPFRPRSTCVHVHAA the figure was under -0.25; with LWSTNATRPHTLRLERSRLA, under -0.25.
For LTWCISVVV, the growth estimate is under -0.25.
On to IGLMTLRGVS, for which the growth estimate was under -0.25.
The result for KCYRGIGLRGLNLRSTQPSA reads under -0.25.
With NEASFAVRPGPV the figure was under -0.25; with LANDRRC, under -0.25; with RGEFRRPLVR, under -0.25.
Turning to QRSPCQG, the growth estimate is under -0.25.
The result for PMLLEGVERDIVLVSDPVSR reads under -0.25.
With GSGGA the figure was under -0.25; with LQGQISTNARIQLPNFPGGD, under -0.25; with GYMSGFICIGVMSGRRFKGQ, under -0.25.
The result for SLAAPVES reads under -0.25; that for GAGSGQPAPGVCAF, -0.246; that for RMH, under -0.25.
Take FITFQSKVRCDVWFEIRGYW: the growth estimate was under -0.25.
Consider LSVHSVGRTKQLVWL, for which the growth estimate was under -0.25.
The result for IRVMWSRASREFWGSQSPRL reads under -0.25; that for SHSRSVREYCGSFICPIQLV, under -0.25.
With RAITQQPL the figure was under -0.25.
With SFVGPS the figure was under -0.25.
For LSCVPAGAA, the growth estimate is under -0.25.
Regarding IAGGISSGVRRALSCRFFGY, the growth estimate is under -0.25.
With GFARYVLRVGSREGLKVYIR the figure was under -0.25; with APPVSILYRMGSCIG, under -0.25.
With LGSV the figure was under -0.25; with FFGFVSHRLLPPSVSNHRLT, under -0.25; with YTGGVVKGRLFYGMKIG, -0.235.
The result for TMGTADALEMQRGWVESMRI reads under -0.25; that for LVGGQCTSTEAPSDGLIMSA, under -0.25; that for APSTLIAAWSRNSRFL, under -0.25.
Consider FTPTRTRLRVV, for which the growth estimate was under -0.25.
Consider SPERASPRLVWALPHDGDWR, for which the growth estimate is under -0.25.
With GVSANWRVGQRQPAGWRESA the figure was under -0.25.
The result for SRRRWWGPRHCFCVRKAELH reads under -0.25; that for KMMYAASRIGDMEATIRFQC, under -0.25.
Take TKLHTKDLLKRGPGHQS: the growth estimate was under -0.25.
